# Data: PubChem BioAssay AID1347421 (Sanford-Burnham Center for Chemical Genomics, 2020)
# The chains behind the UniProt entries cited, without tags or fusion partners. Where a name states a change or a piece, a line headed by the entry shows the natural chain unless it says otherwise.
# UniProt O00391: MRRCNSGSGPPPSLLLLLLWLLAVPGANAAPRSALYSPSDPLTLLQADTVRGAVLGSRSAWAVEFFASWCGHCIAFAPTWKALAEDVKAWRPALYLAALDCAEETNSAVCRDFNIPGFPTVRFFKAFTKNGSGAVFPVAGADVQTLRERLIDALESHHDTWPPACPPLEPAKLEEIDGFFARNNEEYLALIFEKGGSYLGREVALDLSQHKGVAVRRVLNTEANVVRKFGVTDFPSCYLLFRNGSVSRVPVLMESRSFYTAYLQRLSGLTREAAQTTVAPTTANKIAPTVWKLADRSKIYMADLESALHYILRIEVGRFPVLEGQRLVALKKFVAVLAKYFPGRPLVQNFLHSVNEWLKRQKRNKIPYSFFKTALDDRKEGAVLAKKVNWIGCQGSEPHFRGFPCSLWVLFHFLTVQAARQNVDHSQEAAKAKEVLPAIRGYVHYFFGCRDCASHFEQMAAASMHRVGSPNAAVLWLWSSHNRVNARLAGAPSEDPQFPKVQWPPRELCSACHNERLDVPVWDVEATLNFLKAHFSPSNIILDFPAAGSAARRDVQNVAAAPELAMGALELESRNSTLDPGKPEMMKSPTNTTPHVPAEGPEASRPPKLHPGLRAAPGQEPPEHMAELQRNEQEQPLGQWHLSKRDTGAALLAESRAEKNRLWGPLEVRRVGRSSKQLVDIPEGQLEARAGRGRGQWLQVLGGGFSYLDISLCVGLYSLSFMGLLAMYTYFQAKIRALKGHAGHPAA
# In all, about 1,500 compounds were measured (“activity”: median about 2, lowest 2% from about -18 on). This is one part of the list. Activity calls are given as the source filed them.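 The calls were made as follows: active = inhibition of at least 40% at 10 µM; inconclusive = no clear call, values can overlap the other calls; inactive = the rest.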
# Molecular target: Sulfhydryl oxidase 1 (Homo sapiens) (UniProt O00391)
# Assay: human QSOX1 sulfhydryl oxidase inhibition – biochemical, ROS-Glo luminescence, single concentration, confirmation (AID 1347421);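 also: 0% = DMSO wells with enzyme and 100% = wells lacking QSOX1 enzyme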
# Settings: recombinant hQSOX1, RNase A substrate, ROS-Glo H2O2 luminescence; at 10 µM
row,Compound,activity
1,O=C(Cc1cccnc1)N1CCC2(CCCN(Cc3ccc(F)cc3)C2=O)C1 (configuration not stated),7.4%
2,O=C(Cc1ccc2c(c1)OCO2)NC1CCCN(C2CCCCCC2)C1 (configuration not stated),0.8%
3,CCCn1c(=O)c2c(nc3n(CCCOC)c(C)c(C)n23)n(C)c1=O,2.7%
4,CCc1noc(C)c1C(=O)N1CCC(CCC(=O)N(C)Cc2ccccc2)CC1,inactive: -8.5%
5,CN(CC(O)COc1cccc(CNCCN2CCCC2=O)c1)C1CCCCC1 (configuration not stated),1.1%
6,COc1ccc(NC2CCCN(C(=O)c3cn4c(C)cccc4n3)C2)cc1 (configuration not stated),1.3%
7,COc1ccc(OC)c(-c2nc(CN3CCN(C(=O)c4ccco4)CC3)c(C)o2)c1,inactive: -4%
8,O=C(Cn1ccnc1)N(CC1CCN(C2Cc3ccccc3C2)CC1)CC1CCCO1 (configuration not stated),7.8%
9,CSc1ncc(Cl)c(C(=O)Nc2ccc(Br)cc2)n1,inactive: -12.9%
10,Fc1cccc(C2(CNCCNc3cccnc3)CCOC2)c1 (configuration not stated),8.2%
11,Cc1ncc(CN2CCN(Cc3ccc(C)o3)C(CCO)C2)[nH]1 (configuration not stated),4.8%
12,CCn1cncc1CN1CCCC1c1ccc(C(=O)NCc2ccoc2)s1 (configuration not stated),9.3%
13,Cc1c(CN2CC[C@@H](N3CCOCC3)[C@H](O)C2)[nH]c2c(Cl)cccc12,inactive: -1.8%
14,Cc1cc(C)c(S(=O)(=O)Nc2ncn[nH]2)c(C)c1,inactive: -18.4%
15,O=C(Nc1c(F)cc(F)cc1Br)c1cnn2cccnc12,0.1%
16,CC1CN(C(=O)c2ccc(OCc3ccccc3)cc2)CC(C)O1 (configuration not stated),inactive: -3.1%
17,O=C1CCC(C(=O)N2CCC(Oc3cccc(F)c3)CC2)CN1CCc1ccccn1 (configuration not stated),0.7%
18,CCN1CCN(CC(O)COc2ccc(CNCCCOC(C)C)cc2OC)CC1 (configuration not stated),4%
19,CCc1nc(CN2CCC(CCC(=O)Nc3ccccc3)CC2)c(C)[nH]1,3.8%
20,Cc1ccc2c(C)nc(Nc3nc(C(C)C)cc(=O)[nH]3)nc2c1,10.8%
21,CN(CCOc1ccccc1)Cc1cnc(S(C)(=O)=O)n1CC1CCCO1 (configuration not stated),inactive: -6.1%
22,COc1ccc(CCN2CCCC(CN(C)C(=O)c3cccnc3)C2)cc1 (configuration not stated),inactive: -1.3%

# Three structures out of the list, ordered by formula weight, largest number first.
row,Compound,activity
6,COc1ccc(NC2CCCN(C(=O)c3cn4c(C)cccc4n3)C2)cc1 (configuration not stated),1.3%
10,Fc1cccc(C2(CNCCNc3cccnc3)CCOC2)c1 (configuration not stated),8.2%
14,Cc1cc(C)c(S(=O)(=O)Nc2ncn[nH]2)c(C)c1,inactive: -18.4%
